# Laboratory results from the supplement of paper PMC8728848.
# The other results are listed elsewhere or left out.
# B1: C7A (Sus scrofa) (peptide)
# chain: KILRGVCKKIMRTFLRRISKKILTGKK
# Legend:
# Experiment in all cases: glycan array binding signal (z-score within array); higher = stronger binding
# Settings in all cases: glycan notation: IUPAC condensed, linker removed; mutation: D21K
# GalNAc3S(b1-4)GlcNAc3S = molecular target: GalNAc3S(b1-4)GlcNAc3S
# Summary of the method: (§1)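 The Consortium for Functional Glycomics database supplied 3228 glycan arrays, of which those lacking an available protein sequence were dropped. The binding signal, a within-array Z-score, was averaged across arrays of the same protein sequence and across linkers. Negative scores can be read as non-binding.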
# [1] = molecular target: GalNAc3S(b1-4)[Fuc(a1-3)]GlcNAc
# Summary of the method: as §1
# GalNAc4S6S(b1-4)GlcNAc = molecular target: GalNAc4S6S(b1-4)GlcNAc
# Summary of the method: as §1
# GalNAc6S(b1-4)GlcNAc = molecular target: GalNAc6S(b1-4)GlcNAc
# Summary of the method: as §1
# Glc(a1-4)Glc = molecular target: Glc(a1-4)Glc
# Summary of the method: as §1
# [2] = molecular target: Glc(a1-4)Glc(a1-4)Glc(a1-4)Glc
# Summary of the method: as §1
# Glc(a1-6)Glc(a1-6)Glc = molecular target: Glc(a1-6)Glc(a1-6)Glc
# Summary of the method: as §1
# [3] = molecular target: Glc(a1-6)Glc(a1-6)Glc(a1-6)Glc
# Summary of the method: as §1
# Glc(b1-4)Glc = molecular target: Glc(b1-4)Glc
# Summary of the method: as §1
# Glc(b1-6)Glc = molecular target: Glc(b1-6)Glc
# Summary of the method: as §1
# GlcA(b1-3)Gal = molecular target: GlcA(b1-3)Gal
# Summary of the method: as §1
# GlcA(b1-3)GlcNAc = molecular target: GlcA(b1-3)GlcNAc
# Summary of the method: as §1
# GlcA(b1-6)Gal = molecular target: GlcA(b1-6)Gal
# Summary of the method: as §1
# [4] = molecular target: GlcA3S(b1-3)Gal(b1-4)GlcNAc(b1-2)Man
# Summary of the method: as §1
# [5] = molecular target: GlcA3S(b1-3)Gal(b1-4)GlcNAc(b1-3)Gal(b1-4)Glc
# Summary of the method: as §1
# [6] = molecular target: GlcNAc(a1-3)Gal(b1-4)GlcNAc
# Summary of the method: as §1
# [7] = molecular target: GlcNAc(a1-4)Gal(b1-3)GlcNAc
# Summary of the method: as §1
# [8] = molecular target: GlcNAc(a1-4)Gal(b1-4)GalNAc
# Summary of the method: as §1
# [9] = molecular target: GlcNAc(a1-4)Gal(b1-4)GlcNAc
# Summary of the method: as §1
# [10] = molecular target: GlcNAc(a1-4)Gal(b1-4)GlcNAc(b1-3)Gal(b1-4)Glc
# Summary of the method: as §1
# [11] = molecular target: GlcNAc(a1-4)Gal(b1-4)GlcNAc(b1-3)Gal(b1-4)GlcNAc
# Summary of the method: as §1
# [12] = molecular target: GlcNAc(a1-4)Gal(b1-4)GlcNAc(b1-3)Gal(b1-4)GlcNAc(b1-3)Gal(b1-4)GlcNAc
# Summary of the method: as §1
# [13] = molecular target: GlcNAc(a1-4)Gal(b1-4)GlcNAc(b1-3)Gal(b1-4)[Fuc(a1-3)]GlcNAc(b1-3)Gal(b1-4)[Fuc(a1-3)]GlcNAc
# Summary of the method: as §1
# [14] = molecular target: GlcNAc(a1-6)Gal(b1-4)GlcNAc
# Summary of the method: as §1
# [15] = molecular target: GlcNAc(b1-2)Gal(b1-3)GalNAc
# Summary of the method: as §1
# [16] = molecular target: GlcNAc(b1-2)Man(a1-3)[GlcNAc(b1-2)Man(a1-6)]Man(b1-4)GlcNAc(b1-4)GlcNAc
# Summary of the method: as §1
binder,measurement,setting,value
B1,glycan array binding signal (z-score),GalNAc3S(b1-4)GlcNAc3S,1.14
same,glycan array binding signal (z-score),[1],-0.571
same,glycan array binding signal (z-score),GalNAc4S6S(b1-4)GlcNAc,2.43
same,glycan array binding signal (z-score),GalNAc6S(b1-4)GlcNAc,0.92
same,glycan array binding signal (z-score),Glc(a1-4)Glc,0.362
same,glycan array binding signal (z-score),[2],0.113
same,glycan array binding signal (z-score),Glc(a1-6)Glc(a1-6)Glc,-0.06
same,glycan array binding signal (z-score),[3],1.13
same,glycan array binding signal (z-score),Glc(b1-4)Glc,-0.305
same,glycan array binding signal (z-score),Glc(b1-6)Glc,-0.45
same,glycan array binding signal (z-score),GlcA(b1-3)Gal,-0.138
same,glycan array binding signal (z-score),GlcA(b1-3)GlcNAc,0.609
same,glycan array binding signal (z-score),GlcA(b1-6)Gal,-1.53
same,glycan array binding signal (z-score),[4],1.34
same,glycan array binding signal (z-score),[5],0.129
same,glycan array binding signal (z-score),[6],-0.725
same,glycan array binding signal (z-score),[7],-1.74
same,glycan array binding signal (z-score),[8],-1.08
same,glycan array binding signal (z-score),[9],-1.22
same,glycan array binding signal (z-score),[10],-0.555
same,glycan array binding signal (z-score),[11],-0.66
same,glycan array binding signal (z-score),[12],-0.996
same,glycan array binding signal (z-score),[13],-1.42
same,glycan array binding signal (z-score),[14],-1.5
same,glycan array binding signal (z-score),[15],-0.552
same,glycan array binding signal (z-score),[16],-0.062

# Given with bars between the fields: part of the list above.
binder | measurement | setting | value
B1 | glycan array binding signal (z-score) | [4] | 1.34
same | glycan array binding signal (z-score) | [5] | 0.129
